Data reported in patent US20040248765A1, “Tumour targeting prodrugs activated by metallo matrixproteinases” (priority 2001, published 2004).
Some entries share one result that the patent states for a list of compounds. For at least one compound, name, drawing or mass did not settle the structure. Where a SMILES comes first, the peptide text is derived from it. [ ]: non-standard residue; d: D form. The star is where a group is joined. NH(CH2)3NH(1-anthraquinonyl) = O=C1c2ccccc2C(=O)c2c(NCCCN*)cccc21

biological target: T1, topo I (Homo sapiens, UniProt P11387); assay: Inhibition of topo I-mediated relaxation of pBR322 DNA; assay type: biochemical
T1 sequence (P11387 1-765): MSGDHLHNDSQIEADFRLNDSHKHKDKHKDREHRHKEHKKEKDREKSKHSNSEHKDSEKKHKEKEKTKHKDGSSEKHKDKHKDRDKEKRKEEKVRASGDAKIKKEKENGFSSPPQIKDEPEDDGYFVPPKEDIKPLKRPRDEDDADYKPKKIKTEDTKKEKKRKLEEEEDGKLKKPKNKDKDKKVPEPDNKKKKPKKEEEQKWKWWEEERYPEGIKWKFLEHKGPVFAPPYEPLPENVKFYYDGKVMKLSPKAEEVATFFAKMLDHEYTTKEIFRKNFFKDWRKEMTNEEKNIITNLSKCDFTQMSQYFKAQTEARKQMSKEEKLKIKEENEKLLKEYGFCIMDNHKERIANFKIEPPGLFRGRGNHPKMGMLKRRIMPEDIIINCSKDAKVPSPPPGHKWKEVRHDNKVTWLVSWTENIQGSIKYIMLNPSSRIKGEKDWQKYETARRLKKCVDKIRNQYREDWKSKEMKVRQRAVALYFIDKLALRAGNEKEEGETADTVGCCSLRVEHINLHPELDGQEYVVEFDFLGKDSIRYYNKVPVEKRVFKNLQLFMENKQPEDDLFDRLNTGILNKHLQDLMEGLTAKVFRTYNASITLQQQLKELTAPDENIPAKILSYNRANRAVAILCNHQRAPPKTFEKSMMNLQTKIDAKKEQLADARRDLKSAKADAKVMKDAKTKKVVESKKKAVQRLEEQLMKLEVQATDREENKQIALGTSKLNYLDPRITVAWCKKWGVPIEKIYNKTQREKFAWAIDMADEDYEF
Experimental: Neither example (8) [NU:UB187] (heptapeptide) nor its hexa-, penta-, or tetra-peptide metabolites {examples (7) [NU:UB 205], (6) [NU:UB 204] and (5) [NU:UB 186] respectively} inhibited the topo I- mediated relaxation of pBR322 DNA at concentrations up to 100 μM. […] (the preferred MMP-2 cleavage product of example (8) [NU:UB187] The topo I activities of example (2) [NU:UB 31] and example (1b) [NU:UB 197] bad previously been determined [Table 1].

Compound | concentration up to which topo I-mediated relaxation of pBR322 DNA was not inhibited
CC(C)C[C@H](NC(=O)CNC(=O)[C@@H](N)CC(C)C)C(=O)N1CCC[C@H]1C(=O)NCCCNc1cccc2c1C(=O)c1ccccc1C2=O.O=C(O)C(F)(F)F [(5)] (H-LGLP-{NH(CH2)3NH(1-anthraquinonyl)}) | > 100 μM
CC(C)C[C@H](NC(=O)[C@H](C)NC(=O)[C@H](C)N)C(=O)NCC(=O)N[C@@H](CC(C)C)C(=O)N1CCC[C@H]1C(=O)NCCCNc1cccc2c1C(=O)c1ccccc1C2=O.O=C(O)C(F)(F)F [(7)] | > 100 μM
CC(C)C[C@H](NC(=O)[C@H](C)NC(=O)[C@H](C)NC(=O)[C@@H](C)N)C(=O)NCC(=O)N[C@@H](CC(C)C)C(=O)N1CCC[C@H]1C(=O)NCCCNc1cccc2c1C(=O)c1ccccc1C2=O.O=C(O)C(F)(F)F [example (8)] (H-[dA]AALGLP-{NH(CH2)3NH(1-anthraquinonyl)}) | > 100 μM
CC(C)C[C@H](NC(=O)[C@H](C)N)C(=O)NCC(=O)N[C@@H](CC(C)C)C(=O)N1CCC[C@H]1C(=O)NCCCNc1cccc2c1C(=O)c1ccccc1C2=O.O=C(O)C(F)(F)F [(6)] | > 100 μM
